PubChem BioAssay AID248 (DTP/NCI, 2004)
The list shows only some results of the screen, not a fair sample: it is rich in T/C values a quarter to a half above the control, in often repeated tests (any T/C) and in doses without a T/C. Further doses and runs are listed elsewhere. T/C: endpoint of the treated group in % of that of the vehicle group. Some entries give survivors of the animals treated and no T/C: the source files T/C as zero there, which appears to mark a toxic dose or a test without result, not a measured value. Some doses without a T/C left all or most animals alive at the check, yet need not have been tolerated: survival well below the control is almost never listed, so the zero probably covers shortened survival too. Survivors were counted at the toxicity check, usually on the fifth day, unless a day is given; later deaths do not show. Schedule codes are those of the source, read here as Q, the interval in days (D) or hours (H), X, the number of doses. For survival time, the PubChem record calls one and a half times the control and up active, and a quarter to a half above the control has no call in these data; cut-offs in other NCI protocols can differ. Marks such as (2×) say how often a value occurs here. Some entries were tested several times; their values stand side by side, smallest first.

System: L1210 leukemia ip in BDF1 mice, survival T/C
Assay: NCI In Vivo Anticancer Drug Screen. Data for tumor model L1210 Leukemia (intraperitoneal) in B6D2F1 (BDF1) mice
Conditions: T/C endpoint: median survival time, vehicle: saline, higher T/C = longer survival

SMILES: Nc1ncn(C2OC(CO)C(O)C2O)c(=O)n1 (stereo not drawn)
- T/C (dose: 5.0 mg/kg/injection, schedule: Q04DX003 (ip), evaluated on day 5): 137, 161, 168, 170 (2×), 175 % of control
- T/C (dose: 5.0 mg/kg/injection, schedule: Q04DX003 (ip), evaluated on day 8): 144 % of control
- T/C (dose: 5.0 mg/kg/injection, schedule: Q04DX003 (ip), evaluated on day 30): 166 and 168 % of control
- T/C (dose: 5.0 mg/kg/injection, schedule: Q04DX003 (ip), evaluated on day 35): 166 % of control
- T/C (dose: 5.0 mg/kg/injection, schedule: Q04DX003 (ip), evaluated on day 40): 177 % of control
- T/C (dose: 5.0 mg/kg/injection, schedule: Q04DX003 (ip), evaluated on day 60): 140 % of control
- T/C (dose: 6.0 mg/kg/injection, schedule: Q04DX003 (ip), evaluated on day 5): 170 % of control
- T/C (dose: 6.0 mg/kg/injection, schedule: Q04DX003 (ip), evaluated on day 33): 155 and 170 % of control
- T/C (dose: 6.0 mg/kg/injection, schedule: Q04DX003 (ip), evaluated on day 40): 163 % of control
- T/C (dose: 8.4 mg/kg/injection, schedule: Q04DX003 (ip), evaluated on day 5): 149, 219, 225 % of control
- T/C (dose: 8.4 mg/kg/injection, schedule: Q04DX003 (ip), evaluated on day 30): 218 and 227 % of control
- T/C (dose: 8.4 mg/kg/injection, schedule: Q04DX003 (ip), evaluated on day 60): 155 % of control
- T/C (dose: 10.0 mg/kg/injection, schedule: Q01DX001 (ip), evaluated on day 5): 130 % of control
- T/C (dose: 10.0 mg/kg/injection, schedule: Q01DX001 (ip), evaluated on day 40): 133 % of control
- T/C (dose: 10.0 mg/kg/injection, schedule: Q04DX003 (ip), evaluated on day 5): 229, 230, 231, 260 % of control
- T/C (dose: 10.0 mg/kg/injection, schedule: Q04DX003 (ip), evaluated on day 8): 160 % of control
- T/C (dose: 10.0 mg/kg/injection, schedule: Q04DX003 (ip), evaluated on day 35): 222 % of control
- T/C (dose: 10.0 mg/kg/injection, schedule: Q04DX003 (ip), evaluated on day 40): 222 and 238 % of control
- survivor count (dose: 12.0 mg/kg/injection, schedule: Q01DX009 (ip)): 10 of 10
- T/C (dose: 14.0 mg/kg/injection, schedule: Q04DX003 (ip), evaluated on day 5): 128, 185, 207 % of control
- T/C (dose: 14.0 mg/kg/injection, schedule: Q04DX003 (ip), evaluated on day 30): 181 and 211 % of control
- T/C (dose: 14.0 mg/kg/injection, schedule: Q04DX003 (ip), evaluated on day 60): 130 % of control
- T/C (dose: 17.0 mg/kg/injection, schedule: Q04DX003 (ip), evaluated on day 5): 138 % of control
- T/C (dose: 17.0 mg/kg/injection, schedule: Q04DX003 (ip), evaluated on day 40): 131 % of control
- T/C (dose: 20.0 mg/kg/injection, schedule: Q01DX001 (ip), evaluated on day 5): 141 % of control
- T/C (dose: 20.0 mg/kg/injection, schedule: Q01DX001 (ip), evaluated on day 40): 144 % of control
- T/C (dose: 20.0 mg/kg/injection, schedule: Q04DX003 (ip), evaluated on day 5): 237, 252, 270 % of control
- T/C (dose: 20.0 mg/kg/injection, schedule: Q04DX003 (ip), evaluated on day 8): 140 % of control
- T/C (dose: 20.0 mg/kg/injection, schedule: Q04DX003 (ip), evaluated on day 35): 250 % of control
- T/C (dose: 20.0 mg/kg/injection, schedule: Q04DX003 (ip), evaluated on day 40): 244 % of control
- T/C (dose: 23.0 mg/kg/injection, schedule: Q04DX003 (ip), evaluated on day 5): 98, 103, 107 % of control
- T/C (dose: 23.0 mg/kg/injection, schedule: Q04DX003 (ip), evaluated on day 30): 100 % of control (2×)
- T/C (dose: 23.0 mg/kg/injection, schedule: Q04DX003 (ip), evaluated on day 60): 110 % of control
- T/C (dose: 24.0 mg/kg/injection, schedule: Q04DX003 (ip)): 130 % of control
- survivor count (dose: 28.0 mg/kg/injection, schedule: Q04DX003 (ip)): 8 of 8
- T/C (dose: 39.0 mg/kg/injection, schedule: Q04DX003 (ip), evaluated on day 5): 78 and 148 % of control
- T/C (dose: 39.0 mg/kg/injection, schedule: Q04DX003 (ip), evaluated on day 30): 143 % of control
- survivor count (dose: 39.0 mg/kg/injection, schedule: Q04DX003 (ip)): 8 of 8
- T/C (dose: 40.0 mg/kg/injection, schedule: Q04DX003 (ip), evaluated on day 5): 102, 120, 186 % of control
- T/C (dose: 40.0 mg/kg/injection, schedule: Q04DX003 (ip), evaluated on day 8): 136 % of control
- T/C (dose: 40.0 mg/kg/injection, schedule: Q04DX003 (ip), evaluated on day 35): 116 % of control
- T/C (dose: 40.0 mg/kg/injection, schedule: Q04DX003 (ip), evaluated on day 40): 105 % of control
- survivor count (dose: 47.0 mg/kg/injection, schedule: Q04DX003 (ip)): 8 of 8
